Laboratory results taken from the supplement of paper PMC10849652.
The other results are listed elsewhere or left out.

Sequences of proteins named here, by UniProt entry; tags and fusion partners are left off. A change or cut given only in a name is not applied to a line headed by its entry.
UniProt Q13614, whole entry, looked up: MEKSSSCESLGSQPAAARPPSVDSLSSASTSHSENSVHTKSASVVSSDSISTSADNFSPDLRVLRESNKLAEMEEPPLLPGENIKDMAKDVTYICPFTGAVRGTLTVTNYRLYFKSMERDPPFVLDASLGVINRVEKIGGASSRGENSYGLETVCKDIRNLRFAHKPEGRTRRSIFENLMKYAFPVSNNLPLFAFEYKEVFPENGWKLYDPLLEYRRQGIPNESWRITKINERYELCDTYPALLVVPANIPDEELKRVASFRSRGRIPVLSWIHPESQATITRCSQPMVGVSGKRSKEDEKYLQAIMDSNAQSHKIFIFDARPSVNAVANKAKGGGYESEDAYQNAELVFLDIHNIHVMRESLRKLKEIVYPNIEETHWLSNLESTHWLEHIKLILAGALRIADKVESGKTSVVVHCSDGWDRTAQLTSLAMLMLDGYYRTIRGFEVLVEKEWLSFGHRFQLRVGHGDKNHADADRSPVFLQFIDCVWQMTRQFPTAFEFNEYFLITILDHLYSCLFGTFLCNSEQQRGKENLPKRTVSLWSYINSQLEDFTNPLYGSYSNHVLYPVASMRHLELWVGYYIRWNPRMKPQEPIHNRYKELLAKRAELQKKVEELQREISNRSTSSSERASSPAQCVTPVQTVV
UniProt P82909: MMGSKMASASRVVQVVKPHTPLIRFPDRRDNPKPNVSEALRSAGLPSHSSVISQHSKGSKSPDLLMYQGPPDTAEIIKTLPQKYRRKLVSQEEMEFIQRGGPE
UniProt Q9Y217: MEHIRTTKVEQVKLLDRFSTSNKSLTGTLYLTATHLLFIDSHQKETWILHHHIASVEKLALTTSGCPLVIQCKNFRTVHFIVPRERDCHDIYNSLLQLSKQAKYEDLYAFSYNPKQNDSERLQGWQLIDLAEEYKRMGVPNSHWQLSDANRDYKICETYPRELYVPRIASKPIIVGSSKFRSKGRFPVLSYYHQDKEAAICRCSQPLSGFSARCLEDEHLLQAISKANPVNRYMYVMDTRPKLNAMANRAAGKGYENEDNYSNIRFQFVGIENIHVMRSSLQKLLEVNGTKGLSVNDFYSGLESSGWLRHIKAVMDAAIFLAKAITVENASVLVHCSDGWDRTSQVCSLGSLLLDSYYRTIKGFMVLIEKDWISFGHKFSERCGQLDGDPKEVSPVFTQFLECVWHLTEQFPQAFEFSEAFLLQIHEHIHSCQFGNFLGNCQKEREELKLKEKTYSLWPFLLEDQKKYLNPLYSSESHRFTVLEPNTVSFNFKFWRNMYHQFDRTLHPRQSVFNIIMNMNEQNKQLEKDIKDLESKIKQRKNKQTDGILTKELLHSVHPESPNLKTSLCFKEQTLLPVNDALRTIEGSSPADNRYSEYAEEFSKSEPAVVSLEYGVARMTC
UniProt P53602: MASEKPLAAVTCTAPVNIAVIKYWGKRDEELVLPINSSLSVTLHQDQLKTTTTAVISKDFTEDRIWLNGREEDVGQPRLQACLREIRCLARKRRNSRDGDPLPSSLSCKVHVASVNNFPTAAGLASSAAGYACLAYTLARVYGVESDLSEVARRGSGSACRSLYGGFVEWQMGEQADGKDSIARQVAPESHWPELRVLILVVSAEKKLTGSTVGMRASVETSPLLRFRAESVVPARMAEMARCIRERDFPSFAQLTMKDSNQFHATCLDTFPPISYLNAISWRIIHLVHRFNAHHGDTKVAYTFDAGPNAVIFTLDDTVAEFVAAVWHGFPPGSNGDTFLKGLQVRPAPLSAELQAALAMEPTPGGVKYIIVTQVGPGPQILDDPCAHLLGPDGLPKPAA
UniProt P60660, whole entry, looked up: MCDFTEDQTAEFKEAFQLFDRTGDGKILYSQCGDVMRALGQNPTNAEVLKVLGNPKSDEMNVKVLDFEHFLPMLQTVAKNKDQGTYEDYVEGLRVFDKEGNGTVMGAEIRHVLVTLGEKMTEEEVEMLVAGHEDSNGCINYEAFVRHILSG
UniProt Q765P7: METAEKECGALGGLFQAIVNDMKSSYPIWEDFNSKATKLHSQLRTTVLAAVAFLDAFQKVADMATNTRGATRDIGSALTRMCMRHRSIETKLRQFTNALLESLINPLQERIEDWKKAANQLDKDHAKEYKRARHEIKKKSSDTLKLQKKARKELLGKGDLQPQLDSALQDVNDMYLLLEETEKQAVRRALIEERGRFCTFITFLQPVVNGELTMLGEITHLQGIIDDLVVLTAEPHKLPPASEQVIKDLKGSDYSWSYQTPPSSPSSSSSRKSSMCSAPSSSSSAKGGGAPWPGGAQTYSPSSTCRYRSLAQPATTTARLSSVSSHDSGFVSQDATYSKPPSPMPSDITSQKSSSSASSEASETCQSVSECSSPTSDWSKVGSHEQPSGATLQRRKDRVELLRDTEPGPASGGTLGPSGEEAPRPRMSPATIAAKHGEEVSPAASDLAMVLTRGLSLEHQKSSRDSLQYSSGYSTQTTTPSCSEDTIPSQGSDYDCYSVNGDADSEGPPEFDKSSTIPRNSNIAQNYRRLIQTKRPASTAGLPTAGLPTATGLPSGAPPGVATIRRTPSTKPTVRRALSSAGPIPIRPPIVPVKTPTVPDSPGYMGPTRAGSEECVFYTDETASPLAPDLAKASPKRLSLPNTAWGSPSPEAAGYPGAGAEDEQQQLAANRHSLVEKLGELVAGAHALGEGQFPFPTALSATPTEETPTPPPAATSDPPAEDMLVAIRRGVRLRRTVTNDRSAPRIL
UniProt P35579, whole entry, looked up: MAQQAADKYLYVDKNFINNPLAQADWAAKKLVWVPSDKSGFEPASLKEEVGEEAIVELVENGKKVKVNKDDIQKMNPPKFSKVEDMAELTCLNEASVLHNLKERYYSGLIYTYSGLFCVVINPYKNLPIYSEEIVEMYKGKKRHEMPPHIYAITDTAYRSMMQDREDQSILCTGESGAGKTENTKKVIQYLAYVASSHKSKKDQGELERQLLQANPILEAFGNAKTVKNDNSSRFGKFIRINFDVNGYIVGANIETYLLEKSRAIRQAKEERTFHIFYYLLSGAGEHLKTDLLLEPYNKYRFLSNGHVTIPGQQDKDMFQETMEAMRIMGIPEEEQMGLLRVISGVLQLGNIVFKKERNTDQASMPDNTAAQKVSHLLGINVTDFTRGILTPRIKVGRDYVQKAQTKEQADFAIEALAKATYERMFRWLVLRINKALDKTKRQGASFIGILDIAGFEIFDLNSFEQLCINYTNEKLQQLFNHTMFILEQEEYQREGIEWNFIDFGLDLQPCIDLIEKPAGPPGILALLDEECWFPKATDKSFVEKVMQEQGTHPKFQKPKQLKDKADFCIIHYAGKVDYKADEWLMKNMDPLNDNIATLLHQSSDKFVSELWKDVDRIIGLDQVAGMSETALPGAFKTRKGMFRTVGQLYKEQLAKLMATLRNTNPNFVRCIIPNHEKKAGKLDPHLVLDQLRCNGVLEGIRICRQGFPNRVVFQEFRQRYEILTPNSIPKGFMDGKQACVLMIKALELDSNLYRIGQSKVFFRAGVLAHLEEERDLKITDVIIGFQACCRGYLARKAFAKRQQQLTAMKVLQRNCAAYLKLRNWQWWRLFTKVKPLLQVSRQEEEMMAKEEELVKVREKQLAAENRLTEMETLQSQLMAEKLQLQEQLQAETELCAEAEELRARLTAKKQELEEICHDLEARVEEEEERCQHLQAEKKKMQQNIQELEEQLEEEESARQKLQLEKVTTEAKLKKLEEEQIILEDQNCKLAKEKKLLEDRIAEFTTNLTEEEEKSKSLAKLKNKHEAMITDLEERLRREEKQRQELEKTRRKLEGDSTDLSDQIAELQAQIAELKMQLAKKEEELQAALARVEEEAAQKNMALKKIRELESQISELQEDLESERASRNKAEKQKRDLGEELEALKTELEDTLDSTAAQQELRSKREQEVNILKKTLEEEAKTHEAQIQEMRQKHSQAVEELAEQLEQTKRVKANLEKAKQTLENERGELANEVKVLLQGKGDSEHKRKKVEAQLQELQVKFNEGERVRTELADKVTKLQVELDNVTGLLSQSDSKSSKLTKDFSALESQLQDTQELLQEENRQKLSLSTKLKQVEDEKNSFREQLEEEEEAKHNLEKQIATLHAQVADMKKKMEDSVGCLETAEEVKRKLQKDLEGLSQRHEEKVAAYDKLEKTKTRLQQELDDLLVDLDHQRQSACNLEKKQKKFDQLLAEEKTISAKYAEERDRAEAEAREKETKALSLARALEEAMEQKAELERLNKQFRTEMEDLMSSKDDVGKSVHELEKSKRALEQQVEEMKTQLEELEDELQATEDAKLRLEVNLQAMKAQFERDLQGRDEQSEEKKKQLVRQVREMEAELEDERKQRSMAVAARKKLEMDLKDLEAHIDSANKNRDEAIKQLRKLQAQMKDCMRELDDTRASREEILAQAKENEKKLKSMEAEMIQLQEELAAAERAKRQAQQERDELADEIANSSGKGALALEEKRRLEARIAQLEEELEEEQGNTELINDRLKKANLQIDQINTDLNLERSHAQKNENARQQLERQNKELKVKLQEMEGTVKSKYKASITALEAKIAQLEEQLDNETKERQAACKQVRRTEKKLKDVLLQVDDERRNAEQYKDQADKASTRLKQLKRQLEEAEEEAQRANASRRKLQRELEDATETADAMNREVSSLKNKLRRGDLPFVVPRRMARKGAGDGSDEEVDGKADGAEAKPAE
UniProt Q96E11: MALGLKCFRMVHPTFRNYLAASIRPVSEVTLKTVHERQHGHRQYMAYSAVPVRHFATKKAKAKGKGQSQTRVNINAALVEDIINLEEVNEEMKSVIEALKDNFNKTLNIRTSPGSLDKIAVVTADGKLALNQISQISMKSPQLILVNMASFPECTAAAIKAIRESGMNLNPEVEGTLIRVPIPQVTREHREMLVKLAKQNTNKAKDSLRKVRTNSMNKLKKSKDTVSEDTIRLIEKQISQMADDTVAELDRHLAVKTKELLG
UniProt Q9Y3D2: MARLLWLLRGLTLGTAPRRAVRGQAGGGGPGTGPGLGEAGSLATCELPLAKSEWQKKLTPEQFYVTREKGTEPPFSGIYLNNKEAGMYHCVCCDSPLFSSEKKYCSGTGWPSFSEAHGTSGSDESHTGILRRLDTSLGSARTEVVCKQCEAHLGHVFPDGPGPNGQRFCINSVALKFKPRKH
UniProt P13995: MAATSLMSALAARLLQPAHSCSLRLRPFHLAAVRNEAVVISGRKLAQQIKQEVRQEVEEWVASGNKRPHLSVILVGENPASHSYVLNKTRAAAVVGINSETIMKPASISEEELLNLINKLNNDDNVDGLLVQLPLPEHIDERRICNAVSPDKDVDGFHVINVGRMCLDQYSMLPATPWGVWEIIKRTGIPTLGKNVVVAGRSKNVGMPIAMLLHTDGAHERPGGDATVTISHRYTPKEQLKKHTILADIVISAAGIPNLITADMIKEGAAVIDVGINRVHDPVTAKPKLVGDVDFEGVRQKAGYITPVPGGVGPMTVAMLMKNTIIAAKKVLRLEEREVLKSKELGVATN
UniProt Q96DR8: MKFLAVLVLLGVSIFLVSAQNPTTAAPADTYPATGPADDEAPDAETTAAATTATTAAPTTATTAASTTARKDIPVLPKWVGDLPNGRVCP
UniProt P00156: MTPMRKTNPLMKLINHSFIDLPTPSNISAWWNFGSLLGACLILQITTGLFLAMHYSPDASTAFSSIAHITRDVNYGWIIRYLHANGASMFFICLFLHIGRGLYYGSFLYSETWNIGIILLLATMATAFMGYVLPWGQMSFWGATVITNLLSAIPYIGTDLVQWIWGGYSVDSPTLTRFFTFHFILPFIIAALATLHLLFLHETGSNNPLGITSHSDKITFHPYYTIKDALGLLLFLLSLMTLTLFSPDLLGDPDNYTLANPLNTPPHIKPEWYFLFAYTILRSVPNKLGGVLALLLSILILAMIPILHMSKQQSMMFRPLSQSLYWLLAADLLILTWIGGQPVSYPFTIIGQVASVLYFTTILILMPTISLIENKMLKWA
UniProt P12829: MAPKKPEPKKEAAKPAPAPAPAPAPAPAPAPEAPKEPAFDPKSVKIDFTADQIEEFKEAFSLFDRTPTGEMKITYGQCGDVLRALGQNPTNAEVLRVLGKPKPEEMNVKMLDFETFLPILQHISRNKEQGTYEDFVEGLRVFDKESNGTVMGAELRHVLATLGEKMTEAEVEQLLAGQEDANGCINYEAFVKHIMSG

Key:
Assay in all cases: log2 fold change, soluble protein after heating vs DMSO (PISA); higher = thermal stabilisation; K562 cells, 10 uM, 30 min; active = over 0.2 and 3.5 SD of the protein, either way, in both replicates (recomputed)
[1] = compound: COC1=CC=C(C=C1)CN2C=CC3=C2C=C(C=C3)C(=O)NO
In short: (§1)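 Soluble protein was quantified by TMTpro 16plex LC-MS/MS after channel sums were equalised. It was obtained as the supernatant after 21,000xg for 90 min from pooled aliquots of K562 cells (2×10^6 cells/mL, 10 μM compound, 30 min) heated for 3 min across 48°C-58°C and extracted in PBS with 0.5% NP-40 at 4°C. Thermal stability values are relative to control samples and come from duplicates. They are given as log2 fold changes.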

filanesib = compound: CON(C)C(=O)N1N=C(c2cc(F)ccc2F)S[C@@]1(CCCN)c1ccccc1 [filanesib]
In short: as §1

zotarolimus = compound: CO[C@H]1C[C@@H]2CC[C@@H](C)[C@@](O)(O2)C(=O)C(=O)N2CCCC[C@H]2C(=O)O[C@H]([C@H](C)C[C@@H]2CC[C@H](n3cnnn3)[C@H](OC)C2)CC(=O)[C@H](C)/C=C(\C)[C@@H](O)[C@@H](OC)C(=O)[C@H](C)C[C@H](C)/C=C/C=C/C=C/1C [zotarolimus]
In short: as §1

idasanutlin = compound: COc1cc(C(=O)O)ccc1NC(=O)[C@@H]1N[C@@H](CC(C)(C)C)[C@](C#N)(c2ccc(Cl)cc2F)[C@H]1c1cccc(Cl)c1F [idasanutlin]
In short: as §1

alisertib = compound: COc1cc(Nc2ncc3c(n2)-c2ccc(Cl)cc2C(c2c(F)cccc2OC)=NC3)ccc1C(=O)O [alisertib]
In short: as §1

[2] = compound: COc1cc2nc(-c3cc(F)ccc3O)nc(N[C@@H]3CNC[C@H]3C(C)(C)O)c2cc1OC
In short: as §1

gefitinib = compound: COc1cc2ncnc(Nc3ccc(F)c(Cl)c3)c2cc1OCCCN1CCOCC1 [gefitinib]
In short: as §1

[3] = compound: COc1cccc2cc(-c3nc([C@H]4CC[C@H](C(=O)O)CC4)n4ncnc(N)c34)[nH]c12
In short: as §1

lapatinib = compound: CS(=O)(=O)CCNCc1ccc(-c2ccc3ncnc(Nc4ccc(OCc5cccc(F)c5)c(Cl)c4)c3c2)o1 [lapatinib]
In short: as §1

pictilisib = compound: CS(=O)(=O)N1CCN(Cc2cc3nc(-c4cccc5[nH]ncc45)nc(N4CCOCC4)c3s2)CC1 [pictilisib]
In short: as §1

[4] = compound: CS(=O)(=O)c1ccc(-c2cnc(N)c(C(=O)Nc3ccccc3)n2)cc1
In short: as §1

crizotinib = compound: C[C@@H](Oc1cc(-c2cnn(C3CCNCC3)c2)cnc1N)c1c(Cl)ccc(F)c1Cl [crizotinib]
In short: as §1

[5] = compound: C[C@@H]1COCCN1C2=NC(=NC(=C2)C3(CC3)S(=O)(=O)C)C4=C5C=CNC5=CC=C4
In short: as §1

[6] = compound: C[C@H](C1=CC=C(C=C1)C(=O)NC2=C3C=CNC3=NC=C2)N
In short: as §1

duvelisib = compound: C[C@H](Nc1ncnc2nc[nH]c12)c1cc2cccc(Cl)c2c(=O)n1-c1ccccc1 [duvelisib]
In short: as §1

gandotinib = compound: Cc1cc(Nc2cc(CN3CCOCC3)c3nc(C)c(Cc4ccc(Cl)cc4F)n3n2)n[nH]1 [gandotinib]
In short: as §1

tozasertib = compound: Cc1cc(Nc2cc(N3CCN(C)CC3)nc(Sc3ccc(NC(=O)C4CC4)cc3)n2)n[nH]1 [tozasertib]
In short: as §1

[7] = compound: Cc1cc(SCc2sc(-c3ccc(C(F)(F)F)cc3)nc2C)ccc1OCC(=O)O
In short: as §1

doramapimod = compound: Cc1ccc(-n2nc(C(C)(C)C)cc2NC(=O)Nc2ccc(OCCN3CCOCC3)c3ccccc23)cc1 [doramapimod]
In short: as §1

ispinesib = compound: Cc1ccc(C(=O)N(CCCN)[C@@H](c2nc3cc(Cl)ccc3c(=O)n2Cc2ccccc2)C(C)C)cc1 [ispinesib]
In short: as §1

Measured: log2 fold change

MTMR2 (UniProt Q13614)
inactive: [1] -0.074 | filanesib -0.005 | zotarolimus 0.018 | idasanutlin -0.032 | alisertib 0.019 | [2] -0.026 | gefitinib 0.051 | [3] 0.09 | lapatinib 0.042 | pictilisib 0.052 | [4] -0.023 | crizotinib -0.001 | [5] -0.045 | [6] -0.008 | duvelisib 0.028 | gandotinib 0.039 | tozasertib -0.017 | [7] -0.041 | doramapimod 0.042 | ispinesib 0.064

MTMR12 (UniProt Q9C0I1)
inactive: [1] -0.013 | filanesib 0.03 | zotarolimus -0.022 | idasanutlin -0.012 | alisertib -0.05 | [2] 0.039 | gefitinib 0.018 | [3] 0.052 | lapatinib 0.019 | pictilisib 0.012 | [4] 0.006 | crizotinib 0.001 | [5] 0.022 | [6] -0.025 | duvelisib 0.089 | gandotinib -0.043 | tozasertib 0.006 | [7] -0.056 | doramapimod -0.013 | ispinesib 0.067

MTMR3 (UniProt Q13615)
inactive: [1] -0.024 | filanesib 0.019 | zotarolimus -0.024 | idasanutlin 0.036 | alisertib 0.018 | [2] 0.013 | gefitinib 0.011 | [3] 0.08 | lapatinib 0.06 | pictilisib -0.055 | [4] -0.013 | crizotinib -0.054 | [5] 0.11 | [6] 0.05 | duvelisib 0.039 | gandotinib 0.032 | tozasertib -0.112 | [7] -0.011 | doramapimod 0.034 | ispinesib -0.081

MRPS36 (UniProt P82909)
inactive: [1] -0.012 | filanesib -0.024 | zotarolimus -0.021 | idasanutlin 0.037 | alisertib -0.137 | [2] -0.002 | gefitinib -0.012 | [3] 0.026 | lapatinib -0.024 | pictilisib -0.019 | [4] 0.059 | crizotinib -0.052 | [5] -0.027 | [6] -0.095 | duvelisib -0.08 | gandotinib 0.028 | tozasertib -0.035 | [7] -0.121 | doramapimod -0.013 | ispinesib -0.012

MTMR6 (UniProt Q9Y217)
inactive: [1] 0.109 | filanesib -0.002 | zotarolimus 0.075 | idasanutlin 0.132 | alisertib -0.112 | [2] 0.073 | gefitinib -0.07 | [3] 0.203 | lapatinib -0.016 | pictilisib 0.106 | [4] -0.049 | crizotinib 0.049 | [5] 0.151 | [6] 0.048 | duvelisib 0.099 | gandotinib -0.045 | tozasertib 0.02 | [7] -0.008 | doramapimod -0.207 | ispinesib -0.011

MVD (UniProt P53602)
inactive: [1] 0.051 | filanesib -0.068 | zotarolimus -0.014 | idasanutlin -0.031 | alisertib -0.08 | [2] -0.026 | gefitinib 0.011 | [3] 0.006 | lapatinib 0.036 | pictilisib 0.024 | [4] 0.021 | crizotinib -0.041 | [5] 0.059 | [6] -0.042 | duvelisib -0.08 | gandotinib -0.022 | tozasertib -0.007 | [7] -0.026 | doramapimod 0.017 | ispinesib 0.011

MYL6 isoform 2 (UniProt P60660)
inactive: [1] -0.005 | filanesib -0.036 | zotarolimus 0.003 | idasanutlin -0.022 | alisertib -0.018 | [2] 0.029 | gefitinib 0.001 | [3] -0.002 | lapatinib 0.021 | pictilisib 0.011 | [4] 0 | crizotinib 0.023 | [5] 0.082 | [6] -0.072 | duvelisib 0.067 | gandotinib -0.011 | tozasertib 0.075 | [7] 0.002 | doramapimod -0.023 | ispinesib 0.04

MTSS2 (UniProt Q765P7)
inactive: [1] -0.045 | filanesib -0.076 | zotarolimus -0.023 | idasanutlin -0.016 | alisertib -0.039 | [2] 0.039 | gefitinib 0.03 | [3] 0.052 | lapatinib -0.061 | pictilisib 0.096 | [4] 0.026 | crizotinib -0.044 | [5] 0.015 | [6] 0.004 | duvelisib -0.014 | gandotinib -0.127 | tozasertib -0.081 | [7] -0.031 | doramapimod 0.117 | ispinesib 0.032

MYH9 (UniProt P35579)
inactive: [1] 0.094 | filanesib -0.123 | zotarolimus 0.048 | idasanutlin -0.043 | alisertib 0.014 | [2] 0 | gefitinib 0.006 | [3] -0.017 | lapatinib 0.072 | pictilisib -0.103 | [4] -0.03 | crizotinib -0.031 | [5] 0.055 | [6] -0.107 | duvelisib -0.021 | gandotinib -0.114 | tozasertib 0.019 | [7] 0.002 | doramapimod 0.039 | ispinesib 0.078

MRPS34 (UniProt P82930)
inactive: [1] -0.025 | filanesib 0.122 | zotarolimus 0.11 | idasanutlin -0.2 | alisertib -0.036 | [2] 0.002 | gefitinib 0.072 | [3] 0.042 | lapatinib 0.064 | pictilisib -0.042 | [4] 0.032 | crizotinib -0.059 | [5] -0.009 | [6] 0.148 | duvelisib 0.002 | gandotinib -0.034 | tozasertib 0.034 | [7] 0.097 | doramapimod 0.064 | ispinesib -0.183

MRRF (UniProt Q96E11)
inactive: [1] -0.016 | filanesib 0.021 | zotarolimus 0.026 | idasanutlin -0.053 | alisertib -0.017 | [2] 0.066 | gefitinib 0.042 | [3] -0.001 | lapatinib -0.007 | pictilisib -0.004 | [4] 0.009 | crizotinib 0.101 | [5] 0.102 | [6] 0.01 | duvelisib -0.026 | gandotinib 0.014 | tozasertib 0.036 | [7] -0.054 | doramapimod 0.008 | ispinesib 0.11

MSRB2 (UniProt Q9Y3D2)
inactive: [1] 0.234 | filanesib -0.082 | zotarolimus -0.053 | idasanutlin -0.029 | alisertib 0.012 | [2] 0.197 | gefitinib -0.189 | [3] 0.041 | lapatinib 0.245 | pictilisib 0.037 | [4] 0.016 | crizotinib 0.079 | [5] -0.059 | [6] 0.1 | duvelisib 0.092 | gandotinib 0.124 | tozasertib -0.172 | [7] -0.006 | doramapimod -0.038 | ispinesib 0.026

MTHFD2 (UniProt P13995)
inactive: [1] 0.001 | filanesib -0.106 | zotarolimus -0.036 | idasanutlin -0.031 | alisertib -0.064 | [2] -0.014 | gefitinib 0.005 | [3] 0.023 | lapatinib -0.02 | pictilisib 0.007 | [4] 0.023 | crizotinib -0.071 | [5] 0.05 | [6] -0.018 | duvelisib 0.003 | gandotinib -0.053 | tozasertib -0.041 | [7] -0.031 | doramapimod -0.025 | ispinesib -0.111

MUCL1 (UniProt Q96DR8)
inactive: [1] 0.257 | filanesib -0.036 | zotarolimus -0.257 | idasanutlin 0.102 | alisertib 0.049 | [2] -0.058 | gefitinib 0.236 | [3] 0.108 | lapatinib -0.103 | pictilisib 0.264 | [4] -0.328 | crizotinib 0.604 | [5] 0.06 | [6] -0.022 | duvelisib 0.241 | gandotinib 0.468 | tozasertib 0.154 | [7] -0.029 | doramapimod -0.368 | ispinesib 0.309

MT-CYB (UniProt P00156)
inactive: [1] -0.052 | filanesib -0.142 | zotarolimus -0.003 | idasanutlin -0.101 | alisertib 0.055 | [2] -0.125 | gefitinib 0.001 | [3] 0.115 | lapatinib 0.022 | pictilisib 0.026 | [4] 0.026 | crizotinib -0.061 | [5] 0.078 | [6] -0.12 | duvelisib 0.196 | gandotinib -0.145 | tozasertib 0.028 | [7] 0.014 | doramapimod -0.003 | ispinesib -0.025

MYL4 (UniProt P12829)
inactive: [1] 0.033 | filanesib 0.025 | zotarolimus -0.011 | idasanutlin -0.004 | alisertib -0.046 | [2] 0.054 | gefitinib -0.03 | [3] 0.026 | lapatinib -0.091 | pictilisib 0.026 | [4] -0.019 | crizotinib 0.061 | [5] 0.115 | [6] -0.087 | duvelisib 0.039 | gandotinib 0.077 | tozasertib 0.019 | [7] -0.054 | doramapimod 0.006 | ispinesib 0.025

2 successive records from above, quoted:
MSRB2 (UniProt Q9Y3D2)
inactive: [1] 0.234 | filanesib -0.082 | zotarolimus -0.053 | idasanutlin -0.029 | alisertib 0.012 | [2] 0.197 | gefitinib -0.189 | [3] 0.041 | lapatinib 0.245 | pictilisib 0.037 | [4] 0.016 | crizotinib 0.079 | [5] -0.059 | [6] 0.1 | duvelisib 0.092 | gandotinib 0.124 | tozasertib -0.172 | [7] -0.006 | doramapimod -0.038 | ispinesib 0.026

MTHFD2 (UniProt P13995)
inactive: [1] 0.001 | filanesib -0.106 | zotarolimus -0.036 | idasanutlin -0.031 | alisertib -0.064 | [2] -0.014 | gefitinib 0.005 | [3] 0.023 | lapatinib -0.02 | pictilisib 0.007 | [4] 0.023 | crizotinib -0.071 | [5] 0.05 | [6] -0.018 | duvelisib 0.003 | gandotinib -0.053 | tozasertib -0.041 | [7] -0.031 | doramapimod -0.025 | ispinesib -0.111
